In test [1] the target is Nluc-STAT2 (human), P52630. Kind of test: FRET or BRET. The conditions noted are these: remark: other sources report otherwise. Background: BRET reads energy transfer from a luciferase to a nearby fluorophore.
Another test addresses Nluc-p50 (human) (UniProt P19838). Kind of test: FRET or BRET.

Protein sequences, listed by entry. Tags and fused reporters are not part of them. Residues count along the entry.
UniProt P19838, residues 1-433: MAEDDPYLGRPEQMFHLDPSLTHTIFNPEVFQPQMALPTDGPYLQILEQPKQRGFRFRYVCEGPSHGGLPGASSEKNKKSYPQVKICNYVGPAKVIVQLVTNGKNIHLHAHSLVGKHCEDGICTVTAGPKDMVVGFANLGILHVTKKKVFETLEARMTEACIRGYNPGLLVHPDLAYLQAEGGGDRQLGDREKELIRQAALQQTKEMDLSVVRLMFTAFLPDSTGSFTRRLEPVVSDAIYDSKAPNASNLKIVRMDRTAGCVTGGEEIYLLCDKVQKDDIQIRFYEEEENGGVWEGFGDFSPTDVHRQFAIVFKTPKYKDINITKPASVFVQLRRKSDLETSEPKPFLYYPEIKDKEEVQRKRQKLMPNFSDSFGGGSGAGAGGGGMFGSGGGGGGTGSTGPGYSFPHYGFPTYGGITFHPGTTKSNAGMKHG

Results are given in words; binding and its absence hold for the method and conditions named. Binding seen in cells or lysates may run through a third protein. Some binding calls cover weakened binding; strength is not graded here. Tags and fused reporters may be left off the sequences shown.

Consider 2 molecules from article PMC9200754.

B1: YFP-IRF9, Q00978 1-393 (protein)
chain: MASGRARCTRKLRNWVVEQVESGQFPGVCWDDTAKTMFRIPWKHAGKQDFREDQDAAFFKAWAIFKGKYKEGDTGGPAVWKTRLRCALNKSSEFKEVPERGRMDVAEPYKVYQLLPPGIVSGQPGTQKVPSKRQHSSVSSERKEEEDAMQNCTLSPSVLQDSLNNEEEGASGGAVHSDIGSSSSSSSPEPQEVTDTTEAPFQGDQRSLEFLLPPEPDYSLLLTFIYNGRVVGEAQVQSLDCRLVAEPSGSESSMEQVLFPKPGPLEPTQRLLSQLERGILVASNPRGLFVQRLCPIPISWNAPQAPPGPGPHLLPSNECVELFRTAYFCRDLVRYFQGLGPPPKFQVTLNFWEESHGSSHTPQNLITVKMEQAFARYLLEQTPEQQAAILSLV
Consider B1, for which, in test [1], the binding entry is given as “binds”.

B2: YFP-IRF9 (protein, UniProt Q00978 1-393)
chain: MASGRARCTRKLRNWVVEQVESGQFPGVCWDDTAKTMFRIPWKHAGKQDFREDQDAAFFKAWAIFKGKYKEGDTGGPAVWKTRLRCALNKSSEFKEVPERGRMDVAEPYKVYQLLPPGIVSGQPGTQKVPSKRQHSSVSSERKEEEDAMQNCTLSPSVLQDSLNNEEEGASGGAVHSDIGSSSSSSSPEPQEVTDTTEAPFQGDQRSLEFLLPPEPDYSLLLTFIYNGRVVGEAQVQSLDCRLVAEPSGSESSMEQVLFPKPGPLEPTQRLLSQLERGILVASNPRGLFVQRLCPIPISWNAPQAPPGPGPHLLPSNECVELFRTAYFCRDLVRYFQGLGPPPKFQVTLNFWEESHGSSHTPQNLITVKMEQAFARYLLEQTPEQQAAILSLV
For the molecule B2, the binding entry in the test with Nluc-p50 (human) is recorded as “no binding”.
